Measured values taken from the supplement of paper PMC4604168 (melanoma cell lines).
Some of the results follow. Many values rest on one well or one pass, so single values are uncertain.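 Cells were imaged in 1,536-well plates, and nuclei stained with an antibody against cleaved PARP were counted against all DNA-stained nuclei to give the apoptosis fraction. Screening doses were chosen to leave most cells alive, and resting and induced cleaved-PARP levels differ strongly between cell lines.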

Assays:
Test in all cases: cleaved PARP positive nuclei fraction relative to DMSO control; melanoma cells; higher = more apoptosis
Settings in all cases: library dose: low library concentration; 72 h
501Mel = tested on: 501Mel
A101D = tested on: A101D
A2058 = tested on: A2058
A375 = tested on: A375
C32 = tested on: C32
CBRC013 = tested on: CBRC013 (line from a melanoma biopsy)
CBRC014 = tested on: CBRC014 (line from a melanoma biopsy)
CBRC016 = tested on: CBRC016 (line from a melanoma biopsy)
CBRC017 = tested on: CBRC017 (line from a melanoma biopsy)
CBRC008 = tested on: CBRC008 (line from a melanoma biopsy)

| Compound | cleaved PARP positive nuclei fraction (501Mel) [%] | cleaved PARP positive nuclei fraction (A101D) [%] | cleaved PARP positive nuclei fraction (A2058) [%] | cleaved PARP positive nuclei fraction (A375) [%] | cleaved PARP positive nuclei fraction (C32) [%] | cleaved PARP positive nuclei fraction (CBRC013) [%] | cleaved PARP positive nuclei fraction (CBRC014) [%] | cleaved PARP positive nuclei fraction (CBRC016) [%] | cleaved PARP positive nuclei fraction (CBRC017) [%] | cleaved PARP positive nuclei fraction (CBRC008) [%] |
| --- | --- | --- | --- | --- | --- | --- | --- | --- | --- | --- |
| c1cc(-c2cnn3cc(-c4ccc(OCCN5CCCCC5)cc4)cnc23)ccn1 [Dorsomorphin] + COc1cc(N2CCC(N3CCN(C)CC3)CC2)ccc1Nc1ncc(Cl)c(Nc2ccccc2S(=O)(=O)C(C)C)n1 [NVP-TAE684] (first compound 0.4 µM, partner dose 0.08 µM) | 84.2 | 158 | 112 | 131 | 177 | 254 | 95.4 | 31.9 | 80.1 | – |
| COc1cc2c(Oc3ccc4[nH]c(C)cc4c3F)ncnc2cc1OCCCN1CCCC1 [cediranib] + O=S(=O)(c1ccccc1)N(CC(F)(F)F)c1ccc(C(O)(C(F)(F)F)C(F)(F)F)cc1 [T0901317] (first compound 0.4 µM, partner dose 1.4 µM) | 271 | 130 | 109 | 157 | 153 | 60 | 93.9 | 49 | 89.8 | – |
| CN(C)S(=O)(=O)c1ccc2c(c1)/C(=C/c1cc3c([nH]1)CCCC3)C(=O)N2 + O=C(O)c1ccc(-c2c[nH]c3ncc(-c4ccccc4)cc23)cc1C1CCCC1 [GSK650394] (first compound 0.4 µM, partner dose 0.16 µM) | 86.4 | 19.2 | 26.4 | 44.5 | 77.2 | 92.3 | 79.2 | 79.6 | 88.6 | 93.5 |
| COc1ccc(COc2ccc(Cc3cnc(N)nc3N)cc2OC)cc1 + COc1cc2ncnc(Nc3ccc(Oc4ccccc4)cc3)c2cc1OC [SrcI1] (first compound 1 µM, partner dose 2 µM) | 58.7 | 72.6 | 34.4 | 101 | 85.2 | 30.1 | 94.8 | 102 | 90.6 | – |
| CN(NC(=O)CC(=O)NN(C)C(=S)c1ccccc1)C(=S)c1ccccc1 + CCCCCCCCCCCC1=C(O)C(=O)C=C(O)C1=O [Embelin] (first compound 0.006 µM, partner dose 1.2 µM) | 438 | 122 | 105 | 751 | 144 | 73.7 | 477 | 363 | 136 | – |
| COc1cc2c(Oc3ccc4[nH]c(C)cc4c3F)ncnc2cc1OCCCN1CCCC1 [cediranib] + CC(C)CCN1c2nc(Nc3cc(F)c(O)c(F)c3)ncc2N(C)C(=O)C1C [BID1870] (first compound 0.4 µM, partner dose 0.2 µM) | 94.3 | 156 | 28.7 | 19.3 | 92.6 | 367 | 95.6 | 68.3 | 248 | – |
| O=C(O)c1ccc(-c2c[nH]c3ncc(-c4ccccc4)cc23)cc1C1CCCC1 + O=C1NC(=O)/C(=C/c2ccc(-c3ccc(F)cc3O)o2)S1 [AS252424] (first compound 0.16 µM, partner dose 1 µM) | 41.1 | 74.3 | 362 | 184 | 147 | 430 | 114 | 66.8 | 127 | – |
| CN(C)S(=O)(=O)c1ccc2c(c1)/C(=C/c1cc3c([nH]1)CCCC3)C(=O)N2 + NCC(=O)Nc1ccc(-n2nc(C(F)(F)F)cc2-c2ccc3c(ccc4ccccc43)c2)cc1 [OSU03012] (first compound 0.4 µM, partner dose 1 µM) | 189 | 92.4 | 50.9 | 1490 | 207 | 67.9 | 113 | 138 | 109 | 214 |
| CN(NC(=O)CC(=O)NN(C)C(=S)c1ccccc1)C(=S)c1ccccc1 + COc1cc2c(Oc3ccc4[nH]c(C)cc4c3F)ncnc2cc1OCCCN1CCCC1 [cediranib] (first compound 0.006 µM, partner dose 0.4 µM) | 515 | 104 | 162 | 6360 | 356 | 118 | 443 | 267 | 199 | 2750 |
| O=C(O)c1ccc(-c2c[nH]c3ncc(-c4ccccc4)cc23)cc1C1CCCC1 + NCC(=O)Nc1ccc(-n2nc(C(F)(F)F)cc2-c2ccc3c(ccc4ccccc43)c2)cc1 [OSU03012] (first compound 0.16 µM, partner dose 1 µM) | 1020 | 38.7 | 111 | 2860 | 36.8 | 120 | 95.7 | 230 | 139 | 274 |
| O=C(O)c1ccc(-c2c[nH]c3ncc(-c4ccccc4)cc23)cc1C1CCCC1 + COc1cc2c(Oc3ccc4[nH]c(C)cc4c3F)ncnc2cc1OCCCN1CCCC1 [cediranib] (first compound 0.16 µM, partner dose 0.4 µM) | 90.1 | 41.7 | 138 | 165 | 89.5 | 111 | 93.4 | 269 | 106 | 130 |
| O=C(O)c1ccc(-c2c[nH]c3ncc(-c4ccccc4)cc23)cc1C1CCCC1 + c1cc(-c2cnn3cc(-c4ccc(OCCN5CCCCC5)cc4)cnc23)ccn1 [Dorsomorphin] (first compound 0.16 µM, partner dose 0.4 µM) | 44.2 | 52.9 | 101 | 104 | 79.5 | 66.9 | 97.3 | 72.9 | 93.9 | – |
| O=C(O)c1ccc(-c2c[nH]c3ncc(-c4ccccc4)cc23)cc1C1CCCC1 + CN(NC(=O)CC(=O)NN(C)C(=S)c1ccccc1)C(=S)c1ccccc1 [STA4783] (first compound 0.16 µM, partner dose 0.006 µM) | 344 | 118 | 186 | 3450 | 164 | 133 | 567 | 151 | 214 | 1570 |
| O=C1NC(=O)/C(=C/c2ccc(-c3ccc(F)cc3O)o2)S1 + Oc1nc(-c2ccc(C(F)(F)F)cc2)nc2c1CSCC2 [XAV939] (first compound 1 µM, partner dose 2 µM) | 77.9 | 86.1 | 79 | 94.5 | 117 | 199 | 88.3 | 78.3 | 152 | – |
| COc1ccc(COc2ccc(Cc3cnc(N)nc3N)cc2OC)cc1 + O=C1NC(=O)/C(=C/c2ccc(-c3ccc(F)cc3O)o2)S1 [AS252424] (first compound 1 µM, partner dose 1 µM) | 67.4 | 147 | 69.9 | 46.7 | 166 | 48.6 | 75.6 | 79.8 | 65 | – |
| N#Cc1c(O)c2c(-c3ccc(-c4ccccc4O)cc3)csc2[nH]c1=O + O=C(O)C(=O)Nc1sc2c(c1C(=O)O)CCNC2 [TCS401] (first compound 2 µM, partner dose 1.66667 µM) | 68 | 108 | 40.1 | 95.8 | 73.4 | 311 | 78.5 | 105 | 76.9 | – |
| O=C(Nc1ccccc1)c1cc([N+](=O)[O-])ccc1Cl + COc1ccc(COc2ccc(Cc3cnc(N)nc3N)cc2OC)cc1 [GW2580] (first compound 2 µM, partner dose 1 µM) | 51.9 | 49.7 | 132 | 56 | 55.8 | 131 | 260 | 60.1 | 103 | – |
| O=C(O)c1ccc(-c2c[nH]c3ncc(-c4ccccc4)cc23)cc1C1CCCC1 + COc1ccc2c(c1)CCC1C2CCC2(C)C(NCCCCCCN3C(=O)C=CC3=O)CCC12 [U73122] (first compound 0.16 µM, partner dose 0.4 µM) | 269 | 38.3 | 131 | 74 | 114 | 28.8 | 105 | 212 | 119 | – |
| CN(NC(=O)CC(=O)NN(C)C(=S)c1ccccc1)C(=S)c1ccccc1 + O=C(O)C(=O)Nc1sc2c(c1C(=O)O)CCNC2 [TCS401] (first compound 0.006 µM, partner dose 1.66667 µM) | 134 | 88.5 | 312 | 722 | 118 | 175 | 394 | 55.7 | 146 | – |
| Cn1cc(/C=C2\C(=O)Nc3cccnc32)c2ccccc21 + CC(C)CCN1c2nc(Nc3cc(F)c(O)c(F)c3)ncc2N(C)C(=O)C1C [BID1870] (first compound 0.4 µM, partner dose 0.2 µM) | 113 | 94.8 | 81.6 | 85.6 | 100 | 164 | 119 | 134 | 98.6 | – |
| CCc1ccc(CCOc2ccc(CC3SC(=O)NC3=O)cc2)nc1 (stereo not drawn) [pioglitazone] + COc1ccc(-c2ccc3c(N4CCOCC4)nc(N4C[C@@H](C)O[C@@H](C)C4)nc3n2)cc1CO [KU0063794] (first compound 2 µM, partner dose 0.02 µM) | 47.2 | 54.2 | 52.8 | 59.1 | 34.6 | 104 | 105 | 108 | 81 | – |
| COc1ccc(-c2ccc3c(N4CCOCC4)nc(N4C[C@@H](C)O[C@@H](C)C4)nc3n2)cc1CO + O=C1NC(=O)/C(=C/c2ccc(-c3ccc(F)cc3O)o2)S1 [AS252424] (first compound 0.02 µM, partner dose 1 µM) | 122 | 203 | 101 | 65.9 | 282 | 89.2 | 103 | 53.9 | 133 | – |
| CN(C)S(=O)(=O)c1ccc2c(c1)/C(=C/c1cc3c([nH]1)CCCC3)C(=O)N2 + COc1cc2c(Oc3ccc4[nH]c(C)cc4c3F)ncnc2cc1OCCCN1CCCC1 [cediranib] (first compound 0.4 µM, partner dose 0.4 µM) | 95.9 | 90.4 | 121 | 118 | 58.7 | 87.7 | 77.5 | 201 | 99.9 | 132 |
| O=C(O)C(=O)Nc1sc2c(c1C(=O)O)CCNC2 + CCCCCCCCCCCC1=C(O)C(=O)C=C(O)C1=O [Embelin] (first compound 1.66667 µM, partner dose 1.2 µM) | 83.2 | 134 | 190 | 139 | 85.8 | 45.2 | 69.2 | 77.6 | 55.8 | – |

Quoted at random: two entries already listed.

| Compound | cleaved PARP positive nuclei fraction (501Mel) [%] | cleaved PARP positive nuclei fraction (A101D) [%] | cleaved PARP positive nuclei fraction (A2058) [%] | cleaved PARP positive nuclei fraction (A375) [%] | cleaved PARP positive nuclei fraction (C32) [%] | cleaved PARP positive nuclei fraction (CBRC013) [%] | cleaved PARP positive nuclei fraction (CBRC014) [%] | cleaved PARP positive nuclei fraction (CBRC016) [%] | cleaved PARP positive nuclei fraction (CBRC017) [%] | cleaved PARP positive nuclei fraction (CBRC008) [%] |
| --- | --- | --- | --- | --- | --- | --- | --- | --- | --- | --- |
| CN(C)S(=O)(=O)c1ccc2c(c1)/C(=C/c1cc3c([nH]1)CCCC3)C(=O)N2 + O=C(O)c1ccc(-c2c[nH]c3ncc(-c4ccccc4)cc23)cc1C1CCCC1 [GSK650394] (first compound 0.4 µM, partner dose 0.16 µM) | 86.4 | 19.2 | 26.4 | 44.5 | 77.2 | 92.3 | 79.2 | 79.6 | 88.6 | 93.5 |
| O=C(Nc1ccccc1)c1cc([N+](=O)[O-])ccc1Cl + COc1ccc(COc2ccc(Cc3cnc(N)nc3N)cc2OC)cc1 [GW2580] (first compound 2 µM, partner dose 1 µM) | 51.9 | 49.7 | 132 | 56 | 55.8 | 131 | 260 | 60.1 | 103 | – |
